For one molecule, binding results are on record in PMC9646525, “Cryo-EM structure of the SEA complex” (Nature, 2022).

Amino acid sequences for entries named in this document (tags omitted).
UniProt P47170: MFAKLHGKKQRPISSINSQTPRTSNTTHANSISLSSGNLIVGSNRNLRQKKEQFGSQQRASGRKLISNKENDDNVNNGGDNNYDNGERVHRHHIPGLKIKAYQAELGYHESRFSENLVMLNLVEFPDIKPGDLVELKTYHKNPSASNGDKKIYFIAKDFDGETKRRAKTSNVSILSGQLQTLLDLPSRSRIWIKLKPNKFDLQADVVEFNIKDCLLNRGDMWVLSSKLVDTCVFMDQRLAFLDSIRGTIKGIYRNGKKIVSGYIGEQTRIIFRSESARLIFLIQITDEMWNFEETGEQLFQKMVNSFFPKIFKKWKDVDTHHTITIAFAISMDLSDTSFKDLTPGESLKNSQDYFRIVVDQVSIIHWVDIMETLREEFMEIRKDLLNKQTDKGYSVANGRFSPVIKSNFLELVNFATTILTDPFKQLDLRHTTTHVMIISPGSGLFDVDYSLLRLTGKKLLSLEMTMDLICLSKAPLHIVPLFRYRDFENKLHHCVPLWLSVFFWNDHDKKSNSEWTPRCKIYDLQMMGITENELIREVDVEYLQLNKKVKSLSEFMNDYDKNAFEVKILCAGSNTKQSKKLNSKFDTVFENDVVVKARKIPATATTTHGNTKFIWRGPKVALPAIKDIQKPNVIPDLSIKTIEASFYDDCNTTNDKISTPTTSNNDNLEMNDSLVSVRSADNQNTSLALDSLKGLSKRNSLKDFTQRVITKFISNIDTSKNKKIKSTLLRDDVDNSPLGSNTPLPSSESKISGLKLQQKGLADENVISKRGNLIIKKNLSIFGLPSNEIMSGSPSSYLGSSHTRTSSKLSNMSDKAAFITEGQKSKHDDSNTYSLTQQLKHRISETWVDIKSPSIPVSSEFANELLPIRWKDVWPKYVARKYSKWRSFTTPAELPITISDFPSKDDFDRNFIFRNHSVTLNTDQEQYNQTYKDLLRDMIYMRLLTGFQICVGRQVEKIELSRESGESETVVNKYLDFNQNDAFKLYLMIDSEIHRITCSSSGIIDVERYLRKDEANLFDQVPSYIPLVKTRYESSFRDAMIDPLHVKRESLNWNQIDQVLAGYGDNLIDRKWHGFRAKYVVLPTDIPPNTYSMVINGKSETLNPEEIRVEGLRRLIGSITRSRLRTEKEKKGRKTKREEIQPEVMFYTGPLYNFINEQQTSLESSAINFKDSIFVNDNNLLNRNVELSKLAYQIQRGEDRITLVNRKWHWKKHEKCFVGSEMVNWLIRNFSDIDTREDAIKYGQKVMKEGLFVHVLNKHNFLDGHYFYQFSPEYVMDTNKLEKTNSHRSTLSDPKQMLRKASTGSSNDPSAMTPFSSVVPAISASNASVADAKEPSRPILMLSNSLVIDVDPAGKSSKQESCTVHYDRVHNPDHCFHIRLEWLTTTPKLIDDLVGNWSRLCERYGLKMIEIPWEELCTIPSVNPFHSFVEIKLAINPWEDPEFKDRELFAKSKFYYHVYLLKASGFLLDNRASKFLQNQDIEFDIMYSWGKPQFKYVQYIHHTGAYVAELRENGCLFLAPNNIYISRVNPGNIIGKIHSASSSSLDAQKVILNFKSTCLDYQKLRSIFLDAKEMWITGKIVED

The experiment concerns the target Sea1-TAP (S. cerevisiae) (UniProt P47170). As to the kind of experiment: co-IP; SEAC and isolated wing purified using a TAP tag in Sea1 (Sea1-TAP strains), Coomassie-stained SDS-PAGE.

No constants are given. Whether binding was seen depends on the method and setting. Binding seen in cells or lysates may run through a third protein. Some results given as binding are weak or reduced against the parent protein; the word gives no strength.

B1: Npr2 (natural protein, UniProt P39923 1-615, looked up)
chain: MLSYFQGFVPIHTIFYSVFHPTEGSKIKYEFPPNNLKNHGINFNTFKNYIIPKPILCHKLITFKYGTYRIVCYPVTINSPIYARNFFSFNFVFVFPYDCETSPYEPAITRLGKMFKVLEEQNQLLSKSERDPVFFDLKVLENSTTTPSTAGPSSTPNPSSNTTPTHPTSEKDTKDMRSSRYSDLIKDLGLPQSAFSIQDLLMRIFQDLNNYSECLIPIDEGNAVDIKIFPLLRPPTTCVSLEDVPLSSVNLKKIIDVNWDPTMMSIVPYIDGLNSIAKISKLSNSDPGLVIECIRHLIYYKCVTLSDIFQFSNIYAPSSLIRNFLTDPLMASDCQSYVTFPEVSKISNLPLNKSLGSGDQDSPSFSVRRKSKSSSIPSNPDSRTTSFSSTSRVSQNSSLNSSFSSIYKDWRQSQTSCSSSNIHVINNRNRFLPTRSCLFDLYRSLSQGQTLKTWYESKYMILKENNIDIRRFITFGLEKRIIYRCYSFPVMINAGSREPKEMTPIITKDLVNNDKLLEKRNHNHLLSATGSRNTAQSGNLKPERPSKVSFEMQRVSSLATGKSTMPKLSDEEEGILEESIRNAETFDKICVLLSKPKLEVESYLNELGEFKVINS
notes: Npr2, S. cerevisiae, endogenous subunit of the SEAC (SEACIT, wing); Native protein of the purified complex; two copies in the SEAC; source: endogenous, yeast cells expressing Sea4-TAP or Sea1-TAP; in lysate and co-purified with the tagged subunit (IgG Dynabeads, TEV elution)
Regarding B1, the binding entry is listed as “binds”.
